# From PubChem BioAssay AID2685 (National Center for Advancing Translational Sciences (NCATS), 2010)
# This is one part of the list. Further columns of the screen follow, without active or inactive calls. The list favours compounds with an active or inconclusive main result. Potencies come from curve fits of mixed quality, noted in brackets.
# Assay: qHTS Assay for Lipid Storage Modulators in Drosophila S3 Cells;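 for cell number change: cells counted by Cell Tracker Red CMTPX staining in the red channel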
# Conditions: BODIPY lipid droplet fluorescence, 18-24 h; for cell number change: measured here: cell count max response, cells fed with added oleic acid
# How it was run: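 Laser-scanning cytometry quantifies lipid droplet accumulation (500–530 nm total intensity; droplet/cell object ratio) in oleic acid-fed (400 uM added) Drosophila S3 cells treated with a concentration series. 20 uM Triacsin C defined 100% inhibition.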
# [1] = measured here: cell number channel AC50, cells fed with added oleic acid
# [2] = measured here: lipid fluorescence (Fed channel) AC50, cells fed with added oleic acid
compound,measurement,setting,value
CCOc1ccc(-c2nnn(CC(=O)Nc3cc(OC)ccc3OC)n2)cc1OCC,cell number change,,-8.94%
same,AC50,[1],"4.61 µM [falling, single point]"
N#CC(C(=O)OCc1ccccc1)c1nc2ccccc2nc1N1CCOCC1 (centres undefined),cell number change,,-0.856%
same,AC50,[2],"0.517 µM [rising, full curve]"
Cc1c(C(=O)NCc2ccccn2)sc2nc(-c3ccc(F)cc3)cn12,cell number change,,126%
same,AC50,[1],"0.58 µM [rising, full curve]"
same,AC50,[2],"2.59 µM [rising, full curve, poor fit]"
CCOC(=O)N/N=C\c1ccc(OC(=O)c2ccc3c(c2)OCO3)cc1,cell number change,,7.36%
same,AC50,[2],"0.651 µM [falling, single point]"
CCCCNC(=O)c1ccc(CS(=O)(=O)c2cccc(C(F)(F)F)c2)o1,cell number change,,7.54%
O=C(Nc1ccc2c(c1)OCO2)C1CC(c2c(F)cccc2Cl)=NO1 (centres undefined),AC50,[1],"1.46 µM [rising, partial curve]"
same,AC50,[2],"1.16 µM [rising, full curve]"
CC1CCCCN1C(=O)CSc1nc(N)cc(=O)[nH]1 (centres undefined),cell number change,,-12.8%
same,AC50,[2],"6.51 µM [falling, single point]"
CC(=O)N1CCN(C(=O)/C(C#N)=C/c2ccc3c(c2)OCO3)CC1,cell number change,,-9.01%
same,AC50,[2],"0.58 µM [falling, single point]"
Cn1nc(C(=O)NCc2cccc(Cl)c2)c2c1-c1ccccc1S(=O)(=O)C2,cell number change,,42.4%
same,AC50,[1],"29.1 µM [rising, single point]"
same,AC50,[2],"20.6 µM [rising, single point]"
C=CCC1c2cccc(C(=O)O)c2C(=O)N1c1cccc(C)c1 (centres undefined),cell number change,,0.717%
CCCOc1ccc(NC(=O)C2CC(=O)N(C(C)C)C2)cc1 (centres undefined),cell number change,,-8.87%
CCC(OC(=O)CN1C(=O)c2ccccc2C1=O)C(=O)NC1CCCC1 (centres undefined),cell number change,,-8.55%
CC(C)C(=O)Nc1c(-c2cccs2)c(=O)c2ccccc2n1C,cell number change,,36%
same,AC50,[1],"14.6 µM [rising, single point]"
COc1ccc(N(CC(=O)NCCC2=CCCCC2)S(=O)(=O)c2c(C)[nH]c(=O)[nH]c2=O)cc1,cell number change,,-9.03%
Cc1ccccc1N(C)S(=O)(=O)c1nnc(NC(=O)c2ccccc2F)s1,cell number change,,0.33%
CC(=O)Nc1nc(COc2ccc3ccccc3c2)cs1,cell number change,,-34.5%
same,AC50,[1],"23.1 µM [falling, single point]"
same,AC50,[2],"29.1 µM [falling, single point]"
CC[C@H](C)[C@H](NC(=O)OCc1ccccc1)C(=O)OCC(=O)N(C)CC(=O)Nc1ccccc1Cl,cell number change,,-9.94%
CCCN(CCC)C(=O)Cn1c(=O)n(CCC(=O)NCCc2ccccc2)c(=O)c2ccccc21,cell number change,,139%
same,AC50,[1],"29.1 µM [rising, single point]"
Cc1ccccc1Nc1nc(N)nc(CN2CCN(c3ccccn3)CC2)n1,cell number change,,21.8%
same,AC50,[2],"1.84 µM [rising, full curve]"
CCc1ccc(NC2=NCC(c3ccccc3)S2)cc1 (centres undefined),cell number change,,-40.3%
same,AC50,[2],"29.1 µM [falling, single point]"
COc1cccc(C(=O)NC2CCCc3ccccc32)c1 (centres undefined),cell number change,,-9.38%
same,AC50,[2],"0.731 µM [rising, single point]"
NC(=O)C1CCN(c2ncnc3c2c(-c2ccccc2)cn3-c2ccccc2)CC1,cell number change,,-4.24%
same,AC50,[2],"0.411 µM [falling, partial curve, poor fit]"
CCOC(=O)c1[nH]c(C)c(/C(O)=C2\C(=O)C(=O)N(CCCN(C)C)C2c2cccnc2)c1C (centres undefined),cell number change,,6.72%
same,AC50,[2],"0.116 µM [falling, full curve, poor fit]"
Cc1nc(NC(=O)C2CC2)sc1C(=O)Nc1cccc(Cl)c1,cell number change,,7.72%
same,AC50,[2],"18.4 µM [falling, single point]"
Cc1ccn2c(=O)nc(SCC(=O)NC3CCCCC3)nc2c1,AC50,[1],"0.58 µM [rising, partial curve, poor fit]"
CCC1CCCCN1Cc1ccc(OC)c(OC)c1 (centres undefined),cell number change,,-1.61%
same,AC50,[2],"29.1 µM [falling, single point]"
CN(C(=O)c1ccc2c(Cl)c3c(nc2c1)CCC3)c1ccccc1,cell number change,,24.6%
same,AC50,[1],"0.00461 µM [rising, full curve, poor fit]"
same,AC50,[2],"0.00461 µM [rising, full curve, poor fit]"
N#Cc1c(NC(=O)c2ccccc2Cl)n(Cc2ccccc2)c2nc3ccccc3nc12,cell number change,,-22.6%
same,AC50,[2],"29.1 µM [rising, single point]"
COc1ccc(OC(=O)c2cccc([N+](=O)[O-])c2)c(C(=O)/C=C/c2cccs2)c1,cell number change,,-87.2%
same,AC50,[1],"29.1 µM [falling, single point]"
same,AC50,[2],"29.1 µM [falling, single point]"
Nc1nonc1C(=O)NCCNC(=O)c1ccc(Cl)c(Cl)c1,cell number change,,10.8%
CC(=O)Nc1cccc(NC(=O)CSc2n[nH]c(-c3ccccc3)n2)c1,cell number change,,-6.48%
same,AC50,[2],"29.1 µM [rising, single point]"
CCSc1ccccc1C(=O)Nc1ccc([N+](=O)[O-])cc1OC,cell number change,,-20.6%
same,AC50,[2],"0.00517 µM [falling, full curve, poor fit]"
CC(C)(C)OC(=O)N1CCN(c2ccc(NC(=O)Cn3nnc(-c4ccccc4)n3)cc2)CC1,cell number change,,-53.6%
same,AC50,[1],"29.1 µM [falling, single point]"
same,AC50,[2],"23.1 µM [falling, partial curve]"
O=C(CN1C(=O)C(=O)N(C2CCCC2)C1=O)Nc1ccc(F)cc1F,cell number change,,-2.81%
CC1CCC(NC(=O)COC(=O)C2CC3CCCC(C2)C3=O)CC1 (centres undefined),cell number change,,75%
same,AC50,[1],"5.8 µM [rising, full curve]"
CCN1C(N(C)C)=NC[C@@H]1Cc1ccccc1,cell number change,,-11.6%
same,AC50,[1],"5.8 µM [falling, single point]"
same,AC50,[2],"6.51 µM [falling, single point]"
CCOc1ccc(CNC(=O)CCC(=O)n2nc(C)c3ccccc32)cc1,cell number change,,-20.2%
Cc1cc(Cl)ccc1Oc1ccccc1C(=O)CC#N,cell number change,,16.1%
COc1ccc(S(=O)(=O)Nc2nc3n(n2)C(c2ccc(Cl)cc2)CC(=O)N3)cc1 (centres undefined),cell number change,,16.5%
same,AC50,[2],"20.6 µM [rising, single point]"
Cc1ccc(NC(=O)CSc2nnc(-c3ccccc3Br)o2)cc1C,cell number change,,-3.29%
